Data reported in PubChem BioAssay AID504594 (Broad Institute, 2011).
Where “and” joins values, the source holds several entries; their conditions need not be identical. Equal entries are not always repeated. Out of some 2,000 compounds screened, fewer than 10 were called active.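 How the source made its calls: active means growth inhibition of at least 75% in every replicate, which also brings the mean inhibition to 75% or more; inconclusive means mean inhibition 75% or more but some replicate under 75%; inactive means the rest.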 The list shows a part of the results.

test: growth inhibition of PfHsp90-dependent yeast, primary screen, antimalarial PfHsp90 inhibitor project, S. cerevisiae, BacTiter-Glo luminescence (AID 504594);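 further: 0% = DMSO neutral control wells and 100% = 20 µM radicicol control wells; higher value means stronger growth inhibition because the sign is flipped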; settings: S. cerevisiae expressing PfHsp90, BacTiter-Glo growth, 48 h; at 9.4 µM; hits give high values

Growth inhibition, inactive:
CCc1ccc(CN(C)Cc2nc(Cc3ccccc3)no2)nc1 -0.638%
CC(C)(C)c1ccc(C(O)CCCN2CCC(C(O)(c3ccccc3)c3ccccc3)CC2)cc1 (configuration not stated) 6.4%
CC(=O)Nc1nc(CCC(C)C)cc2c1c(=O)oc1ccccc12 -1.94%
CC(COc1ccccc1)NC(C)C(O)c1ccc(O)cc1 (configuration not stated) 2.68%
COC1=C(N)C(=O)c2nc(-c3nc(C(=O)O)c(C)c(-c4ccc(OC)c(OC)c4O)c3N)ccc2C1=O -7.96%
O=C(OCCN1CCOCC1)c1cccs1 -2.82%
O=c1nc2sc3ccccc3n2c(=O)n1-c1ccc(Cl)cc1 7.78%
CCCC(CCC)C(=O)OC1C[C@H]2CC[C@@H](C1)[N+]2(C)C (some centres not stated) 2.61%
c1ccc(Cn2ncc3c(Nc4ccccc4)ncnc32)cc1 -4.47%
CSc1ccc2c(c1)N(CCC1CCCCN1C)c1ccccc1S2 (configuration not stated) -4.04%
Cc1cc(-c2nn(-c3ccccc3F)cc2CN2CCCC(O)C2)c(C)s1 (configuration not stated) 5.63%
Cc1cc(-c2ccccc2)nnc1NCCN1CCOCC1 -0.565%
OCCN(Cc1nc(-c2ccc3c(c2)OCO3)no1)Cc1cccs1 -10%
COc1cc2c(cc1OC)CN(C(=O)c1ccc(S(=O)(=O)N(C)c3ccccc3)cc1)CC2 -4.77%
CCOc1ccccc1C(=O)NCCC(=O)O -5.17%
OC[C@H]1O[C@@H](n2cnc3c(Nc4ccccc4)ncnc32)[C@H](O)[C@@H]1O -0.239%
C=CCNC(=S)N1CCc2c([nH]c3ccccc23)C1C (configuration not stated) -5.39%
COc1ccc(C=O)c(OC)c1 9.26%
Cc1ccsc1/C=C/C1=NCCCN1C 1.84%
Fc1cc(F)cc(NC(=S)NCCCN2CCOCC2)c1 10.9%
CCCCC[C@H](O)/C=C/[C@@H]1[C@@H](C/C=C\CCCC(=O)OC)[C@@H](O)C[C@H]1O -5.41%
Cn1nc(-c2ccccn2)nc2c(=O)n(C)c(=O)nc1-2 -12.4%
CCN(CC)CCNc1ccc(CO)c2sc3ccccc3c(=O)c12 -10.1%
Cc1ccc(O)c(CCc2ccccc2)n1 -2.21%
CCN(CC)CCOC(=O)C(c1ccccc1)c1ccccc1 -4.02%
OC(CCCN1CCCCC1)(c1ccccc1)c1ccccc1 -11.8%
COc1ccccc1NC(=O)C12CCC(C)(C(=O)C1)C2(C)C (configuration not stated) 5.66%
C[C@]12CC[C@@H]3c4ccc(OS(=O)(=O)O)cc4CC[C@H]3[C@@H]1CCC2=O -9.49%
COC1(C)CC2C(CC1OC(=O)c1cc([N+](=O)[O-])cc([N+](=O)[O-])c1)C2(C)C (configuration not stated) 63.1%
COc1ccc(CCn2c(C)nc3c(c(=O)c4ccccc4n3C)c2=O)cc1 -0.711%
Cc1ccc(S(=O)(=O)NC(=O)NN2CCCCCC2)cc1 -10.7%
COc1ccc(O)c(N)c1 12.8%
S=C(c1ccc2c(c1)OCO2)N1CCCCC1 -3.12%
COc1cc2c3c(c1)C(C)CC(C)(C)N3C(=O)C2=O (configuration not stated) 11.5%
COc1ccc(C(=O)NCc2cccnc2)cc1 6.25%
CC(=O)Nc1ccccc1O 4.24%
O=c1cc(Cn2ccnc2)c2cc3c(cc2o1)CCC3 -2.19%
O=c1oc2c(CN3CCN(CCO)CC3)c(O)ccc2cc1-c1ccccn1 -12.8%
CCOC(=O)c1cnc2ccc(C(=O)OC)cc2c1Nc1ccc2c(c1)OCCO2 4.33%
Cc1cccc(NC(=O)c2cc3ccccc3o2)c1 -5.63%
c1ccc(CN(CC2=NCCN2)c2ccccc2)cc1 21.1% and -3%
O=C(NCCN1CCN(c2ccccc2)CC1)c1cccc(Br)c1 1.95%
CCOc1ccc(CCn2c(-c3ccco3)nc3ccccc3c2=O)cc1OCC 19%
CC(C)CN1CCN(Cc2ccc3ncccc3c2)CC1CCO (configuration not stated) -15.2%
COc1ccc(/C=C2\CCn3c2nc2cc(C(=O)O)ccc2c3=O)cc1OC -8.43%
CC(=O)OCC(=O)[C@H]1CC[C@H]2[C@@H]3CCC4=CC(=O)CC[C@]4(C)[C@H]3CC[C@]12C -0.528%
CCOC(=O)Cn1c(C)cc(=O)c2ccccc21 16.7%
COc1cc2nc(-c3ccccc3)nc(N3CCCC3)c2cc1OC 0.0822%
O=c1[nH]c(Cc2ccccc2)nc2c1oc1ccccc12 6.81%
C#C[C@]1(O)CC[C@H]2[C@@H]3CCC4=CC(=O)CC[C@@H]4[C@H]3CC[C@@]21CC -2.31%
O=C(NO)c1ccccc1O 1.98%
CC(C)C[C@H]1C(=O)N2CCC[C@H]2[C@]2(O)O[C@](NC(=O)[C@@H]3C=C4c5cccc6[nH]c(Br)c(c56)CC4N(C)C3)(C(C)C)C(=O)N12 (some centres not stated) 7.24%
CC(=O)OCC(=O)[C@@]1(OC(C)=O)[C@@H](C)C[C@H]2[C@@H]3C[C@H](F)C4=CC(=O)C=C[C@]4(C)[C@@]3(F)[C@@H](O)C[C@@]21C -34.4%
CC(N=C(NC#N)Nc1ccncc1)C(C)(C)C (configuration not stated) 2.75%
COc1ccc(CN(C)CCc2ccccn2)cc1OC 5.69%
S=C(NCc1ccccc1)NCc1cccc(CNC(=S)NCc2ccccc2)c1 0.496%
Oc1[nH]c2ccccc2c1N=Nc1ccccc1 -5.94%
C=CCn1c(N2CCCCCC2)nc2c1c(=O)n(C)c(=O)n2C 0.16%
CN1CCCC(OC(=O)c2ccc3c(c2)OCCO3)C1 (configuration not stated) -2.5%
COC(=O)c1ccccc1NC(=O)c1ccc(COc2ccc3c(c2)CCC3)cc1 -17.4%
Cc1c2c(nc3c(C)cccc13)OC(C)C2 (configuration not stated) 8.19%
CN(C)C(=O)Oc1ccc[n+](C)c1 -2.14%
CC(=O)CCc1c(C)c2cccc(C)c2[nH]c1=O -14%
COc1ccccc1OCC(O)COC(N)=O (configuration not stated) 13.2%
COc1ccc2[nH]c(=O)c(CNC3CCCCC3)cc2c1 -29%
COc1cc2c(cc1OC)C(Cc1ccc(O)cc1)N(C)CC2 (configuration not stated) 2.11%
O=C(c1ccc(O)cc1)c1ccc(O)cc1O 3.52%
COc1ccccc1C(=O)c1cc2ccc(O)cc2oc1=O -16.8%
Cc1ccc(S(=O)(=O)Oc2ccccc2/C=N/N=C(N)N)cc1 9.9%
CCc1cc2c(=O)c(-c3ccc(F)cc3)c(C)oc2cc1OCC(=O)O -0.0935%
O=C(O)CP(=O)(O)O -14%
CNc1nc(N(C)C)nc(N(C)C)n1 -1.75%
COc1ccc(C(=O)/C=C/c2cc(C(=O)O)cc3c2OCOC3)c(O)c1 0.0828%
Cc1cccc(-c2ncc(CN3CCN(CC(C)C)C(CCO)C3)cn2)c1 (configuration not stated) 1.96%
COc1ccc(Cc2noc(CN(C)CC3(N4CCOCC4)CCCCC3)n2)cc1OC 8.87%
COC1CCN(Cc2cn(Cc3ccccc3)nc2-c2cc3ccccc3o2)CC1 3.22%
COc1ccc(C2C3=C(OC(C)=O)c4ccccc4C3=Nc3c2c(=O)n(C)c(=O)n3C)cc1 (configuration not stated) -5.34%
O=C1NC(=O)C(c2ccccc2)(c2ccccc2)N1 0.478% and 3.13%
Cc1ccccc1-c1nn(-c2ccc(F)cc2F)cc1CNCCN(C)C -12.6%
Cc1ccc2c(c1)C(O)(C1COC(C)(C)CC1=O)C(=O)N2C (configuration not stated) 0.262%
O=C1NCC2=C1C(c1ccccc1)Nc1ccccc1N2 (configuration not stated) 6.48%
c1ccc(CNc2ncnc3nc[nH]c23)cc1 -9.92%
CC(C)Cc1nc(NCCN2CCOCC2)c(C#N)c2c1COC(C)(C)C2 4.14%
O=c1nc2cccc3c2=c(/c1=C(\O)c1ccccc1)c1ccccc1c3=O -23.6%
Fc1ccc(-c2cc(-c3ccccc3)nc(-n3cccn3)n2)cc1 41%
CC(=O)OCC[N+](C)(C)C 5.1% and -0.781%
Cn1c(=O)c(C(=O)NCCO)c(O)c2ccccc21 6.66%
CC[n+]1ccc2cc(OC)c(OC)cc2c1Cc1ccc(OC)c(OC)c1 -1.65%
O=C(/C=C/c1ccc2c(c1)OCO2)c1ccccn1 13.3%
CN1C(=O)C(O)(CC(=O)/C=C/C=C/c2ccccc2)c2ccccc21 (configuration not stated) 3.4%
Cn1cc(C2N3CC4(C)CN2CC(C)(C3)C4=O)c2ccccc21 (configuration not stated) -6.17%
OCCN(CCO)c1ccc2ccccc2c1 -5.34%
CN(C)[C@@H]1C(=O)C(C(N)=O)=C(O)[C@@]2(O)C(=O)C3=C(O)c4c(O)ccc(Cl)c4[C@@H](O)[C@H]3C[C@@H]12 -2.79%
CC(C)(C)C(=O)NC(=S)NNC(=O)c1ccncc1 1.34%
C[C@H]1O[C@H]1P(=O)(O)O -1.34%
COc1ccc2[nH]cc(CCNC(=O)C3CCCNC3=O)c2c1 (configuration not stated) -3.06%
CCOC(=O)c1ccc(N2C(=O)C(CC(N)=O)N(CCc3ccc(OC)c(OC)c3)C2=S)cc1 (configuration not stated) 6.32%

4 entries picked at random from those above, as already listed:
Growth inhibition, inactive:
Cc1ccc(S(=O)(=O)Oc2ccccc2/C=N/N=C(N)N)cc1 9.9%
COc1ccc(C(=O)/C=C/c2cc(C(=O)O)cc3c2OCOC3)c(O)c1 0.0828%
CCOc1ccccc1C(=O)NCCC(=O)O -5.17%
Cc1cc(-c2nn(-c3ccccc3F)cc2CN2CCCC(O)C2)c(C)s1 (configuration not stated) 5.63%
